# Test results reported in paper PMC9646721, “Alkaloid binding to opium poppy major latex proteins triggers structural modification and functional aggregation” (Nature Communications, 2022).
# Legend:
# [1] = Sucrose density-gradient fractionation of latex, relative abundance of BIAs in gradient fractions; parameters: species or system Papaver somniferum; conditions: Cultivar T
# [2] = system: engineered Saccharomyces cerevisiae CEN.PK strain (NISO not included); assay: Morphinan alkaloid accumulation in opiate-producing yeast strain fed salutaridine; type: cell-based; conditions: replicates 1-4
# [3] = 2 h salutaridine feeding, EV strain
# [4] = 2 h salutaridine feeding, MLP2 strain
# [5] = 2 h salutaridine feeding, MLP15 strain
# [6] = 2 h salutaridine feeding, NISO strain
# [7] = 2 h salutaridine feeding, PR10-4 strain
# [8] = 2 h salutaridine feeding, PR10-10 strain
# [9] = 2 h salutaridine feeding, PR10-12 strain
# [10] = 6 h salutaridine feeding, EV strain
# [11] = 6 h salutaridine feeding, MLP2 strain
# [12] = 6 h salutaridine feeding, MLP15 strain
# [13] = 6 h salutaridine feeding, NISO strain
# [14] = 6 h salutaridine feeding, PR10-4 strain
# [15] = 6 h salutaridine feeding, PR10-10 strain
# [16] = 6 h salutaridine feeding, PR10-12 strain
smiles,measurement,setting,value
COC1=CC=C2[C@H]3Cc4ccc(O)c5c4[C@@]2(CCN3C)[C@H]1O5 [Oripavine],Alkaloid concentration in sucrose density-gradient fraction,[1]; fraction 1,2.778 mM
same,Alkaloid concentration in sucrose density-gradient fraction,[1]; fraction 2,3.420 mM
same,Alkaloid concentration in sucrose density-gradient fraction,[1]; fraction 3,1.728 mM
same,Alkaloid concentration in sucrose density-gradient fraction,[1]; fraction 4,0.957 mM
same,Alkaloid concentration in sucrose density-gradient fraction,[1]; fraction 5,0.493 mM
same,Alkaloid concentration in sucrose density-gradient fraction,[1]; fraction 6,0.482 mM
same,Alkaloid concentration in sucrose density-gradient fraction,[1]; fraction 7,0.333 mM
same,Alkaloid concentration in sucrose density-gradient fraction,[1]; fraction 8,0.275 mM
same,Alkaloid concentration in sucrose density-gradient fraction,[1]; fraction 9,0.240 mM
same,Alkaloid concentration in sucrose density-gradient fraction,[1]; fraction 10,0.283 mM
same,Alkaloid concentration in sucrose density-gradient fraction,[1]; fraction 11,0.421 mM
same,Alkaloid concentration in sucrose density-gradient fraction,[1]; fraction 12,0.481 mM
same,Alkaloid concentration in sucrose density-gradient fraction,[1]; fraction 13,0.408 mM
same,Alkaloid concentration in sucrose density-gradient fraction,[1]; fraction 14,0.507 mM
same,Alkaloid concentration in sucrose density-gradient fraction,[1]; fraction 15,0.488 mM
same,Alkaloid concentration in sucrose density-gradient fraction,[1]; fraction 16,0.461 mM
same,Alkaloid concentration in sucrose density-gradient fraction,[1]; fraction 17,0.654 mM
same,Alkaloid concentration in sucrose density-gradient fraction,[1]; fraction 18,0.706 mM
same,Alkaloid concentration in sucrose density-gradient fraction,[1]; fraction 19,0.627 mM
same,Alkaloid concentration in sucrose density-gradient fraction,[1]; fraction 20,0.649 mM
same,Alkaloid concentration in sucrose density-gradient fraction,[1]; fraction 21,0.775 mM
same,Alkaloid concentration in sucrose density-gradient fraction,[1]; fraction 22,0.885 mM
COc1ccc2c3c1O[C@H]1[C@@H](O)CC=C4[C@@H](C2)N(C)CC[C@]431 [Neopine],Alkaloid accumulation in yeast,[2]; [3],90.1045 ug/ul/OD and 102.598 ug/ul/OD and 99.8567 ug/ul/OD and 129.514 ug/ul/OD
same,Alkaloid accumulation in yeast,[2]; [4],185.318 ug/ul/OD and 162.512 ug/ul/OD and 214.081 ug/ul/OD and 199.068 ug/ul/OD
same,Alkaloid accumulation in yeast,[2]; [5],186.914 ug/ul/OD and 216.809 ug/ul/OD and 151.679 ug/ul/OD and 178.175 ug/ul/OD
same,Alkaloid accumulation in yeast,[2]; [6],41.8682 ug/ul/OD and 68.2355 ug/ul/OD and 66.817 ug/ul/OD and 52.682 ug/ul/OD
same,Alkaloid accumulation in yeast,[2]; [7],149.026 ug/ul/OD and 177.227 ug/ul/OD and 187.803 ug/ul/OD and 167.415 ug/ul/OD
same,Alkaloid accumulation in yeast,[2]; [8],218.051 ug/ul/OD and 165.458 ug/ul/OD and 172.221 ug/ul/OD and 155.958 ug/ul/OD
same,Alkaloid accumulation in yeast,[2]; [9],219.002 ug/ul/OD and 235.566 ug/ul/OD and 193.739 ug/ul/OD and 175.392 ug/ul/OD
same,Alkaloid accumulation in yeast,[2]; [10],599.662 ug/ul/OD and 537.685 ug/ul/OD and 618.641 ug/ul/OD and 731.645 ug/ul/OD
same,Alkaloid accumulation in yeast,[2]; [11],618.023 ug/ul/OD and 659.534 ug/ul/OD and 837.009 ug/ul/OD and 779.078 ug/ul/OD
same,Alkaloid accumulation in yeast,[2]; [12],700.107 ug/ul/OD and 775.519 ug/ul/OD and 620.885 ug/ul/OD and 697.077 ug/ul/OD
same,Alkaloid accumulation in yeast,[2]; [13],260.266 ug/ul/OD and 339.365 ug/ul/OD and 269.816 ug/ul/OD and 244.703 ug/ul/OD
same,Alkaloid accumulation in yeast,[2]; [14],612.932 ug/ul/OD and 864.219 ug/ul/OD and 718.083 ug/ul/OD and 710.823 ug/ul/OD
same,Alkaloid accumulation in yeast,[2]; [15],716.828 ug/ul/OD and 684.13 ug/ul/OD and 734.317 ug/ul/OD and 683.056 ug/ul/OD
same,Alkaloid accumulation in yeast,[2]; [16],729.161 ug/ul/OD and 693.948 ug/ul/OD and 667.134 ug/ul/OD and 709.514 ug/ul/OD
"CN1CC[C@]23c4c5ccc(O)c4O[C@H]2[C@@H](O)C=C[C@H]3[C@H]1C5 [Morphine, morphine]",Alkaloid accumulation in yeast,[2]; [3],0 ug/ul/OD
same,Alkaloid accumulation in yeast,[2]; [4],0 ug/ul/OD
same,Alkaloid accumulation in yeast,[2]; [5],0 ug/ul/OD
same,Alkaloid accumulation in yeast,[2]; [6],31.8118 ug/ul/OD and 38.2354 ug/ul/OD and 42.3717 ug/ul/OD and 33.3759 ug/ul/OD
same,Alkaloid accumulation in yeast,[2]; [7],0 ug/ul/OD
same,Alkaloid accumulation in yeast,[2]; [8],0 ug/ul/OD
same,Alkaloid accumulation in yeast,[2]; [9],0 ug/ul/OD
same,Alkaloid accumulation in yeast,[2]; [10],4.642 ug/ul/OD and 4.6506 ug/ul/OD and 7.363 ug/ul/OD and 9.984 ug/ul/OD
same,Alkaloid accumulation in yeast,[2]; [11],4.891 ug/ul/OD and 4.488 ug/ul/OD and 7.508 ug/ul/OD and 6.933 ug/ul/OD
same,Alkaloid accumulation in yeast,[2]; [12],8.178 ug/ul/OD and 8.8501 ug/ul/OD and 5.846 ug/ul/OD and 6.1773 ug/ul/OD
same,Alkaloid accumulation in yeast,[2]; [13],252.218 ug/ul/OD and 294.519 ug/ul/OD and 267.006 ug/ul/OD and 243.832 ug/ul/OD
same,Alkaloid accumulation in yeast,[2]; [14],5.5784 ug/ul/OD and 6.627 ug/ul/OD and 6.367 ug/ul/OD and 7.072 ug/ul/OD
same,Alkaloid accumulation in yeast,[2]; [15],8.898 ug/ul/OD and 5.659 ug/ul/OD and 6.15 ug/ul/OD and 6.406 ug/ul/OD
same,Alkaloid accumulation in yeast,[2]; [16],9.97 ug/ul/OD and 9.655 ug/ul/OD and 8.617 ug/ul/OD and 7.255 ug/ul/OD

# “And” between values parts separate entries of the source, which are not always exact repeats. Equal values may be shown once.
